From patent publication US8470776B2 (Aeterna Zentaris GmbH, priority 2006, dated 2013)

Assay: general procedure: peptide synthesis; HATU/DIPEA
Conditions: conjugation step

Disorazole Z Mono Hemi Succinyl Somatostatin (18); peptide H-D-Phe-Cys-Tyr-D-Trp-Lys(Fmoc)-Val-Cys-Thr-NH2×HCl (disulfide bridged)
conjugation yield: 33%
